Results deposited as PubChem BioAssay AID1259264 (Sanger Institute, 2017).
Shown is an unselected part of 794 reagents. 15 of all reagents (1.9%) count as active. 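Calls rest on knock-down alone at z-score below -3; synergy scores with the three drugs do not decide them.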 Unmarked entries are inactive. Not all columns of the deposit are shown. Reagent sequences are not shown. Not stated in the record: the amount of reagent, the time to read-out.

- Assay: 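Kinases needed for CL40 growth and those that boost anti-cancer drug killing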 (primary screen)
- Cells: CL40 human colorectal cancer cells
- Reagent: siRNA pool against human genes
- Challenge: DMSO, or an anchor drug: BYL719 at 1 µM, cetuximab at 5 µg/ml, or trametinib at 10 nM
- Read-out: 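Replicate-mean viability versus a non-targeting pool, robust z-score from control wells, and mean synergy with BYL719 1 µM, cetuximab 5 µg/ml or trametinib 10 nM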
- Reading the numbers: robust z-score, siRNA alone: higher = more viable cells
- Rule for the call: 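Essential call: siRNA with no drug reaches a robust z under -3 (low cell count); drug synergy scores do not affect it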
- Meaning of the calls: active = essential (lowers viability alone); inactive = not essential

| target | robust z-score, siRNA alone |
| --- | --- |
| BRD2 (bromodomain containing 2) | 0.539 |
| MAP3K9 (mitogen-activated protein kinase kinase kinase 9) | -2.23 |
| CDK5 (cyclin dependent kinase 5) | 0.539 |
| TAF1 (TATA-box binding protein associated factor 1) | 0.539 |
| MOS (MOS proto-oncogene, serine/threonine kinase) | -0.303 |
| BCKDK (branched chain keto acid dehydrogenase kinase) | 0.539 |
| MAPK12 (mitogen-activated protein kinase 12) | 0.539 |
| FRK (fyn related Src family tyrosine kinase) | -0.224 |
| PTK6 (protein tyrosine kinase 6) | 0.42 |
| MAP3K11 (mitogen-activated protein kinase kinase kinase 11) | 0.539 |
| DGUOK (deoxyguanosine kinase) | 0.539 |
| MAP4K4 (mitogen-activated protein kinase kinase kinase kinase 4) | 0.342 |
| MAP4K3 (mitogen-activated protein kinase kinase kinase kinase 3) | -0.31 |
| PDK4 (pyruvate dehydrogenase kinase 4) | 0.539 |
| CDK1 (cyclin dependent kinase 1) | -0.794 |
| MAPK11 (mitogen-activated protein kinase 11) | 0.539 |
| ACVRL1 (activin A receptor like type 1) | 0.389 |
| CLK4 (CDC like kinase 4) | 0.313 |
| CSF1R (colony stimulating factor 1 receptor) | 0.309 |
| RPS6KA5 (ribosomal protein S6 kinase A5) | -1.23 |
| PRKD3 (protein kinase D3) | 0.161 |
| MAP3K10 (mitogen-activated protein kinase kinase kinase 10) | 0.539 |
| EGFR (epidermal growth factor receptor) | -0.348 |
| MARK4 (microtubule affinity regulating kinase 4) | 0.539 |
| GRK4 (G protein-coupled receptor kinase 4) | 0.539 |
| CDK16 (cyclin dependent kinase 16) | -0.00137 |
| EPHB4 (EPH receptor B4) | 0.539 |
| CNOT1 (CCR4-NOT transcription complex subunit 1) | -2.67 |
| GRK5 (G protein-coupled receptor kinase 5) | 0.492 |
| ETNK2 (ethanolamine kinase 2) | 0.3 |
| NME5 (NME/NM23 family member 5) | 0.305 |
| PANK1 (pantothenate kinase 1) | 0.539 |
| PRKAA1 (protein kinase AMP-activated catalytic subunit alpha 1) | 0.539 |

Next part (4 carried over from the part before).
| target | robust z-score, siRNA alone |
| --- | --- |
| ETNK2 (ethanolamine kinase 2) | 0.3 |
| NME5 (NME/NM23 family member 5) | 0.305 |
| PANK1 (pantothenate kinase 1) | 0.539 |
| PRKAA1 (protein kinase AMP-activated catalytic subunit alpha 1) | 0.539 |
| ACSL6 (acyl-CoA synthetase long chain family member 6) | -0.251 |
| MAP2K3 (mitogen-activated protein kinase kinase 3) | 0.539 |
| KHK (ketohexokinase) | -0.669 |
| CDK14 (cyclin dependent kinase 14) | 0.539 |
| TRIM27 (tripartite motif containing 27) | 0.539 |
| NUAK1 (NUAK family kinase 1) | -0.874 |
| FXN (frataxin) | 0.165 |
| PRAG1 (PEAK1 related, kinase-activating pseudokinase 1) | -0.0693 |
| MELK (maternal embryonic leucine zipper kinase) | 0.539 |
| PHKG2 (phosphorylase kinase catalytic subunit gamma 2) | 0.292 |
| TSSK2 (testis specific serine kinase 2) | 0.064 |
| NEK1 (NIMA related kinase 1) | 0.197 |
| PTK2B (protein tyrosine kinase 2 beta) | 0.539 |
| MAP4K1 (mitogen-activated protein kinase kinase kinase kinase 1) | -1.78 |
| TAF1L (TATA-box binding protein associated factor 1 like) | 0.539 |
| PAK3 (p21 (RAC1) activated kinase 3) | 0.539 |
| CDK5R1 (cyclin dependent kinase 5 regulatory subunit 1) | 0.257 |
| LTK (leukocyte receptor tyrosine kinase) | 0.539 |
| MAPK9 (mitogen-activated protein kinase 9) | 0.539 |
| PRP4K (pre-mRNA processing factor kinase PRP4K) | 0.464 |
| MAPK6 (mitogen-activated protein kinase 6) | 0.539 |
| PRKAB2 (protein kinase AMP-activated non-catalytic subunit beta 2) | 0.186 |
| SMAD2 (SMAD family member 2) | -0.261 |
| RIOK3 (RIO kinase 3) | 0.539 |
| BPTF (bromodomain PHD finger transcription factor) | -0.353 |
| RET (ret proto-oncogene) | 0.539 |
| PIK3CA | -0.366 |
| RTN4 (reticulon 4) | 0.539 |
| GAK (cyclin G associated kinase) | 0.539 |
| STYK1 (STY kinase 1) | -0.951 |
